Reference: PubChem BioAssay AID743454 (Peter MacCallum Cancer Centre, 2014)
The deposit covers about 18,000 reagents; below is a random part of them. In the full data, 450 (2.5%) got an active call. 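Single biological run; no consistent viability z cut-off exists, so the class columns, not z-scores, define the calls.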

Test: 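Genes whose loss kills vorinostat-resistant colon cancer cells under vorinostat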 (primary screen)
System: human HCT116-VR colon cancer cells, selected for vorinostat resistance
Knock-down reagent: siRNA pool against human genes, 40 nM siRNA pool
Timing: vorinostat for 24 h, read-out about 72 h after transfection
Conditions: vorinostat at 2.5 µM final
Detection: 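Two measures, CellTiter-Fluor viability and luminescent caspase 3/7 activity, each as fold change against same-plate mock wells, mean of duplicates, then screen-wide robust z-score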
Direction: viability robust z-score: higher = more viable cells than screen typical; caspase robust z-score: higher = more caspase 3/7 activity than screen typical
Call rule: 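a knock-down is a hit when classed RV1 or RV2 for lowered viability, or CA1 or CA2 for caspase activation; those lethal without drug were dropped; hits were retested singly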

{"gene":"UTY","viability hit class":"no change","caspase hit class":"no change","viability robust z-score":-1.48,"caspase robust z-score":-0.64,"outcome":"inactive"}
{"gene":"ENAH","viability hit class":"no change","caspase hit class":"no change","viability robust z-score":0.08,"caspase robust z-score":1.41,"outcome":"inactive"}
{"gene":"RNASE8","viability hit class":"no change","caspase hit class":"no change","viability robust z-score":0.86,"caspase robust z-score":-0.96,"outcome":"inactive"}
{"gene":"CDH4","viability hit class":"no change","caspase hit class":"no change","viability robust z-score":-0.05,"caspase robust z-score":1.2,"outcome":"inactive"}
{"gene":"SLC27A6","viability hit class":"no change","caspase hit class":"no change","viability robust z-score":-0.1,"caspase robust z-score":-0.93,"outcome":"inactive"}
{"gene":"THBD","viability hit class":"no change","caspase hit class":"no change","viability robust z-score":-0.22,"caspase robust z-score":-0.38,"outcome":"inactive"}
{"gene":"CCDC141","viability hit class":"no change","caspase hit class":"no change","viability robust z-score":1.98,"caspase robust z-score":-0.51,"outcome":"inactive"}
{"gene":"ZNF763","viability hit class":"no change","caspase hit class":"no change","viability robust z-score":0.14,"caspase robust z-score":-1.23,"outcome":"inactive"}
{"gene":"IQCC","viability hit class":"no change","caspase hit class":"no change","viability robust z-score":0.24,"caspase robust z-score":0.3,"outcome":"inactive"}
{"gene":"RAB8B","viability hit class":"no change","caspase hit class":"no change","viability robust z-score":0.12,"caspase robust z-score":0.85,"outcome":"inactive"}
{"gene":"PTP4A3","viability hit class":"no change","caspase hit class":"no change","viability robust z-score":0.48,"caspase robust z-score":1.33,"outcome":"inactive"}
{"gene":"DTNB","viability hit class":"no change","caspase hit class":"no change","viability robust z-score":-1.14,"caspase robust z-score":-1.14,"outcome":"inactive"}
{"gene":"KHDRBS2","viability hit class":"no change","caspase hit class":"no change","viability robust z-score":-0.26,"caspase robust z-score":0.55,"outcome":"inactive"}

In a second layout: 3 of the entries above.
SLC27A6 | viability hit class: no change; caspase hit class: no change; viability robust z-score: -0.1; caspase robust z-score: -0.93; outcome: inactive
THBD | viability hit class: no change; caspase hit class: no change; viability robust z-score: -0.22; caspase robust z-score: -0.38; outcome: inactive
CCDC141 | viability hit class: no change; caspase hit class: no change; viability robust z-score: 1.98; caspase robust z-score: -0.51; outcome: inactive

The list goes on:
{"gene":"ERAP1","viability hit class":"no change","caspase hit class":"no change","viability robust z-score":-0.55,"caspase robust z-score":-0.75,"outcome":"inactive"}
{"gene":"REN","viability hit class":"no change","caspase hit class":"no change","viability robust z-score":-0.3,"caspase robust z-score":-0.62,"outcome":"inactive"}
{"gene":"ELOF1","viability hit class":"no change","caspase hit class":"no change","viability robust z-score":-1.46,"caspase robust z-score":4.08,"outcome":"inactive"}
{"gene":"CENPS","viability hit class":"no change","caspase hit class":"no change","viability robust z-score":0.88,"caspase robust z-score":0.5,"outcome":"inactive"}
{"gene":"KIR2DS3","viability hit class":"no change","caspase hit class":"no change","viability robust z-score":-0.38,"caspase robust z-score":2.29,"outcome":"inactive"}
{"gene":"PRG4","viability hit class":"no change","caspase hit class":"no change","viability robust z-score":1.73,"caspase robust z-score":-0.45,"outcome":"inactive"}
{"gene":"CT47A4","viability hit class":"no change","caspase hit class":"no change","viability robust z-score":-0.44,"caspase robust z-score":2.62,"outcome":"inactive"}
{"gene":"BNC2","viability hit class":"no change","caspase hit class":"no change","viability robust z-score":0.3,"caspase robust z-score":-0.92,"outcome":"inactive"}
